# PubChem BioAssay AID504764 – Drosophila RNAi Screening Center | 2011
# Purpose: 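Genes whose knock-down alters Notch-dependent transcription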 (primary screen)
# Cells: Drosophila Kc167 cells
# Knock-down reagent: long dsRNA against Drosophila genes
# Duration: about 5 days (4 days dsRNA, then 24 h after transfection)
# Challenge: transfection of constitutively active membrane-tethered Notch lacking the extracellular domain, read 24 h later
# Measured: 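Firefly luciferase from an E(spl)m3 reporter with active Notch, plus control-promoter and uninduced reporter wells for normalisation; unnormalised counts, duplicate wells a and b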
# Reading the numbers: induced reporter light, run 1, well a and induced reporter light, run 1, well b: higher = more light from the Notch target reporter with active Notch; control promoter light, run 1, well a and control promoter light, run 1, well b: higher = more light from the viral control promoter (cell number, transfection, viability); uninduced reporter light, run 1, well a: higher = more light from the Notch target reporter without active Notch
# Call rule: 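Wells with low control signal or poorly matching duplicates excluded; duplicates averaged; per source plate, z beyond ±2 for induced/control log2 ratio or beyond ±1.8 for induced/uninduced marks a hit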
# Calls: active = modifier hit (raised or lowered Notch signal); inactive = not a hit
# The deposit covers about 22,000 reagents; below is a random part of those with a known target gene and a result. Of all reagents, 403 (1.9%) got an active call. 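Unnormalised raw counts per well; ratio z-scores behind the hit calls and whether each hit raises or lowers signal are not deposited.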 Names joined by + are all predicted targets of the reagent. Not given: the amount of reagent.
target gene,DRSC id,"induced reporter light, run 1, well a","induced reporter light, run 1, well b","control promoter light, run 1, well a","control promoter light, run 1, well b","uninduced reporter light, run 1, well a",Call
trh (trachealess),DRSC08355,1.27e5,1.17e5,2.91e5,2.28e5,6770,inactive
trh (trachealess),DRSC08739,1.17e5,1.31e5,2.26e5,2.10e5,9095,inactive
AANATL6 (Arylalkylamine N-acetyltransferase-like 6),DRSC06773,32145,41925,37750,35095,3205,inactive
CG5382,DRSC15786,2.00e5,2.25e5,2.75e5,2.42e5,15360,inactive
Atet (ABC transporter expressed in trachea),DRSC00263,2.57e5,2.05e5,2.69e5,2.44e5,12115,inactive
Ugt49B2 (UDP-glycosyltransferase family 49 member B2),DRSC16049,1.88e5,1.67e5,1.86e5,2.23e5,13115,inactive
CG5347,DRSC19942,92165,78555,1.10e5,1.04e5,13615,inactive
esn (espinas),DRSC05039,35495,42300,69880,55770,1910,inactive
esn (espinas),DRSC07612,1.67e5,1.72e5,2.29e5,1.95e5,14930,inactive
Rip11 (Rab11 interacting protein),DRSC20000,1.39e5,1.63e5,1.23e5,77305,11878,inactive
Dpy-30L1 (Dpy-30-like 1),DRSC02959,1.10e5,1.39e5,70425,98395,17438,inactive
Als2 (Amyotrophic lateral sclerosis 2),DRSC11806,1.22e5,1.29e5,83925,1.18e5,10528,inactive
CG34135,DRSC12702,1.93e5,1.27e5,1.53e5,1.44e5,15025,inactive
CG32027 (retired record),DRSC09571,1.99e5,1.96e5,2.29e5,2.63e5,17175,inactive
Rift (Riboflavin transporter),DRSC14330,1.40e5,1.34e5,2.27e5,1.73e5,8705,inactive
CG2794,DRSC00534,1.11e5,1.02e5,94810,79340,10505,inactive
CG6761,DRSC10705,1.08e5,1.50e5,84440,64550,10520,inactive
CG15258,DRSC02478,1.15e5,1.32e5,1.31e5,1.59e5,11145,inactive
nkd (naked cuticle),DRSC11376,1.11e5,1.19e5,2.06e5,1.42e5,9255,inactive
E(z) (Enhancer of zeste),DRSC11147,64775,75595,69580,25455,6890,inactive
cdi (center divider),DRSC16922,1.72e5,1.85e5,2.29e5,2.28e5,16680,inactive
CG4577,DRSC00658,1.32e5,1.21e5,1.16e5,59890,10095,inactive
CG7829,DRSC16322,1.19e5,1.11e5,1.55e5,1.56e5,9890,inactive
vnc + CG42455,DRSC09867,1.14e5,90935,64505,50085,12085,inactive
RnpS1 (RNA-binding protein S1),DRSC15154,1.10e5,99125,56755,53340,6725,inactive
CG17134,DRSC02583,1.39e5,1.53e5,88135,96360,19895,inactive
CG15480,DRSC02490,1.02e5,1.28e5,89045,1.09e5,11830,inactive
CG12862,DRSC06202,94595,74655,1.06e5,1.15e5,8560,inactive
CG6094,DRSC02927,2.22e5,2.26e5,1.78e5,1.78e5,15232,inactive
Tbcc (Tubulin-binding cofactor C),DRSC00223,1.19e5,1.13e5,1.55e5,1.83e5,12740,inactive
Nemp (Nuclear envelope integral membrane protein),DRSC20206,81690,65975,60915,38840,5540,inactive
Cdc14 (Cell division cycle 14),DRSC03013,1.36e5,1.55e5,83680,1.20e5,19640,inactive
Kots (Kotsubu),DRSC16581,1.13e5,1.29e5,87485,88360,8575,inactive
Rsph4a (Radial spoke head protein 4a),DRSC04338,2.21e5,2.18e5,1.99e5,1.89e5,14680,inactive

Not a retest: 4 of the entries above.
target gene,DRSC id,"induced reporter light, run 1, well a","induced reporter light, run 1, well b","control promoter light, run 1, well a","control promoter light, run 1, well b","uninduced reporter light, run 1, well a",Call
Tbcc (Tubulin-binding cofactor C),DRSC00223,1.19e5,1.13e5,1.55e5,1.83e5,12740,inactive
Nemp (Nuclear envelope integral membrane protein),DRSC20206,81690,65975,60915,38840,5540,inactive
Cdc14 (Cell division cycle 14),DRSC03013,1.36e5,1.55e5,83680,1.20e5,19640,inactive
Kots (Kotsubu),DRSC16581,1.13e5,1.29e5,87485,88360,8575,inactive
